Measurements as given in publication PMC8185548.
Results are given in words; binding and its absence hold for the method and conditions named. In cells and extracts the contact can be indirect. Some entries that bind do so weakly or less than the wild type. Values belong to the molecule of their own block, whether it stands above or below them.

By UniProt entry, the sequences of proteins in these tests, tags left out. Residues count along the entry.
UniProt P70658: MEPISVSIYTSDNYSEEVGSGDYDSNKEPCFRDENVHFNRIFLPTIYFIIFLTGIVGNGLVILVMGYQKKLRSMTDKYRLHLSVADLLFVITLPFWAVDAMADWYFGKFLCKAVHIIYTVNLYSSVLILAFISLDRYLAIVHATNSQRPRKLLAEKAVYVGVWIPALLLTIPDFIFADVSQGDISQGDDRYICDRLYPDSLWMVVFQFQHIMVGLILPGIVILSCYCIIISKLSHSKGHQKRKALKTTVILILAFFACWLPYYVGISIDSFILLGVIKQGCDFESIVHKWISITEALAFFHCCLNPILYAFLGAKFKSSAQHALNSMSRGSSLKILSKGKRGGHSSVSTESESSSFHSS
UniProt Q62151, residues 23-402: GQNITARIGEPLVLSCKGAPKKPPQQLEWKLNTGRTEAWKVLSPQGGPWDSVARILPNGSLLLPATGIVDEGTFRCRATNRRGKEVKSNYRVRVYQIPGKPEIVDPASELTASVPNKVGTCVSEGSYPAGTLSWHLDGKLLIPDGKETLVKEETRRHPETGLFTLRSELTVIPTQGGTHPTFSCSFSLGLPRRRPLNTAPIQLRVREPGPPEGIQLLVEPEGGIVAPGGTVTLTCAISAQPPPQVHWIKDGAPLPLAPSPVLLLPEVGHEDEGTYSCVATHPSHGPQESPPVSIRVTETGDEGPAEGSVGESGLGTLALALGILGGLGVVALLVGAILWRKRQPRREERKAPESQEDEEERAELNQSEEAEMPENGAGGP
UniProt Q9QUK6, residues 26-835: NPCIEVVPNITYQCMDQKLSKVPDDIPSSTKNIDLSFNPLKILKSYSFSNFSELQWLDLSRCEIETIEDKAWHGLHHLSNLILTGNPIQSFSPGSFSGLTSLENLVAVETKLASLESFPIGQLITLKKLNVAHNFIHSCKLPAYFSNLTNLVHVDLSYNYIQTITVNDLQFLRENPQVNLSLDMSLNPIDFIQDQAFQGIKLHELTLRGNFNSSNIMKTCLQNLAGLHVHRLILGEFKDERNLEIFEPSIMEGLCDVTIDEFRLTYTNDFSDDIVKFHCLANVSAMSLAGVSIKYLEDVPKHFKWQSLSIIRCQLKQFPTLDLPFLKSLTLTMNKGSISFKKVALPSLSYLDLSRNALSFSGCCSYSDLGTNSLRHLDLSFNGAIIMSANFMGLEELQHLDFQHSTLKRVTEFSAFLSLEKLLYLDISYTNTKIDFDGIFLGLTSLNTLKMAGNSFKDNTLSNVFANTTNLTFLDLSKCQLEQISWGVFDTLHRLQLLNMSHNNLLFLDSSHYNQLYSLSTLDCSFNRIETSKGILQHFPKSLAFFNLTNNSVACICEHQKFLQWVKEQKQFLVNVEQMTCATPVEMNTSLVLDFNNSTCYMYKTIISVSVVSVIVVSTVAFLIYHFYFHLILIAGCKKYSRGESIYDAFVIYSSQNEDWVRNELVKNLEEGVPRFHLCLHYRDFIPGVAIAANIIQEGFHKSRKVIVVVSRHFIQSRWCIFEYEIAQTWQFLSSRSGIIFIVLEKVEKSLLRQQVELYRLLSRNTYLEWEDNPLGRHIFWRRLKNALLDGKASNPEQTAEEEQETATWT

Tests used:
[1] = molecular target: T1, CD47 (mouse (endogenous in AB1 cells)) (UniProt Q61735); assay: proximity ligation; fixed MM (AB1) cells on coverslips, resting (PBS) or treated overnight with 400 nM BoxA or 10 nM CXCL12; primary antibodies to CD47 together with anti-CXCR4, anti-RAGE or anti-TLR4; Duolink probes; confocal imaging, signal per cell quantified
T1 sequence: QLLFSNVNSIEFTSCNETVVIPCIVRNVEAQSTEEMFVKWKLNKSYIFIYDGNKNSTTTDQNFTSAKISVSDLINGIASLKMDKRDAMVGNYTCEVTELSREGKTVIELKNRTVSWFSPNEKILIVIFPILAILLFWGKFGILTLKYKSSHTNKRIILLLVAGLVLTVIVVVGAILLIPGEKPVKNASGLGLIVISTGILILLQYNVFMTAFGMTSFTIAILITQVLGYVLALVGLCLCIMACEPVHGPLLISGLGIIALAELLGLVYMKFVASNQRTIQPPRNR

[2] = molecular target: CXCR4 (mouse (endogenous in AB1 cells)) (UniProt P70658); assay: proximity ligation; fixed MM (AB1) cells, overnight 400 nM BoxA or PBS, permeabilized or not; PLA performed on one receptor at a time (CD47, CXCR4, RAGE, TLR4) to detect pairs of identical receptor molecules
[3] = molecular target: RAGE (mouse (endogenous in AB1 cells)) (UniProt Q62151); assay: as above
[4] = molecular target: TLR4 (mouse (endogenous in AB1 cells)) (UniProt Q9QUK6); assay: as above
[5] = molecular target: T2, CD47 (mouse (endogenous in AB1 cells)), Q61735; assay: as above; conditions: remark: other sources report otherwise
T2 chain: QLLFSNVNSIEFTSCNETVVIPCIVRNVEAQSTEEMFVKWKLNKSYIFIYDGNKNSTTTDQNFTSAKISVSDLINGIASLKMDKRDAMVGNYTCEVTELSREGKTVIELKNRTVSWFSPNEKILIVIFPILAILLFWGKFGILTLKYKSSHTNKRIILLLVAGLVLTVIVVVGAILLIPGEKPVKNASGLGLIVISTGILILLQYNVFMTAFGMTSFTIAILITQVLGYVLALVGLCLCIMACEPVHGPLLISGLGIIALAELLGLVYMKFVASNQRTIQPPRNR

binding [1]: binds
binding [2]: binds
Molecule: CXCR4 (from UniProt P70658 1-359) (receptor)

binding [3]: binds
Molecule: RAGE (from UniProt Q62151 23-402) (receptor)

binding [4]: binds
Molecule: TLR4 (from UniProt Q9QUK6 26-835) (receptor)

binding [5]: binds
B1: CD47, Q61735 19-303 (protein)
chain: QLLFSNVNSIEFTSCNETVVIPCIVRNVEAQSTEEMFVKWKLNKSYIFIYDGNKNSTTTDQNFTSAKISVSDLINGIASLKMDKRDAMVGNYTCEVTELSREGKTVIELKNRTVSWFSPNEKILIVIFPILAILLFWGKFGILTLKYKSSHTNKRIILLLVAGLVLTVIVVVGAILLIPGEKPVKNASGLGLIVISTGILILLQYNVFMTAFGMTSFTIAILITQVLGYVLALVGLCLCIMACEPVHGPLLISGLGIIALAELLGLVYMKFVASNQRTIQPPRNR
